Measurements published in article PMC5649179.
These are yes or no findings as the source states them, for the method shown. Binding seen in cells or lysates may run through a third protein. Some binding calls cover weakened binding; strength is not graded here.

Sequences of proteins named here, by UniProt entry; tags and fusion partners are left off.
UniProt P63074: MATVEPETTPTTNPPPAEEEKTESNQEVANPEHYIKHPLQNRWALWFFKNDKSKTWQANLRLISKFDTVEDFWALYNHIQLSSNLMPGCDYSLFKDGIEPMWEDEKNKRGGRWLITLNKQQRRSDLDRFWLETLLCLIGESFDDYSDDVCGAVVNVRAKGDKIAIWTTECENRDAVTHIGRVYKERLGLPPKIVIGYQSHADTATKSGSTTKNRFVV
UniProt Q9EPW1: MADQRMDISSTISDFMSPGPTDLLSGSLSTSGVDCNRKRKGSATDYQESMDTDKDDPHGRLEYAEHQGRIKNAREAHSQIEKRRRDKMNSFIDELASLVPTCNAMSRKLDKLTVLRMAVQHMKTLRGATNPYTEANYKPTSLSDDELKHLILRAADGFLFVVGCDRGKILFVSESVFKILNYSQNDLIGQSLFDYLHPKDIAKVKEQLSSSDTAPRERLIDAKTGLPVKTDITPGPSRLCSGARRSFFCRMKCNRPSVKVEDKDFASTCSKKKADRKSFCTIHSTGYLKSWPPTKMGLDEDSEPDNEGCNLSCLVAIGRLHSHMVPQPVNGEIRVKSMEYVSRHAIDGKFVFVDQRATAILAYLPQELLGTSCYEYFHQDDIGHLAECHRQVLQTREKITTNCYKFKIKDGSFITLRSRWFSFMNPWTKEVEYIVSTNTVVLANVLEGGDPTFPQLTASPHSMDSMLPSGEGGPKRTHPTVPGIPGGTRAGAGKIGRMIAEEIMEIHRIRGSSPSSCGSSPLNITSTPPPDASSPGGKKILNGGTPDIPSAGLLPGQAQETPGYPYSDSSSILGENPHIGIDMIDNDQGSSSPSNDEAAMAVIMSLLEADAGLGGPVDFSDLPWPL

Target: eukaryotic translation initiation factor eIF4E (rat (endogenous in prefrontal cortex and hippocampus)) (UniProt P63074)
Experiment: pull-down; m7GTP (cap) pull-down: 300-400 ug protein of rat prefrontal cortex or hippocampus lysate with 30 ul 7-methyl GTP-agarose beads, 2 h at 4 °C, lysis buffer 50 mM Tris, 100 mM NaCl, 1 mM EDTA, 0.5% NP-40, 1 mM DTT; three washes; eIF4E held by the cap analogue, bound proteins found by immunoblot and normalised to recovered eIF4E; animals undisturbed at ZT0 or ZT12, or after 3 days of active work (ZT0) or rest work (ZT12)

binding	Substance
binds	brain-and-muscle arnt-like protein 1 (total BMAL1) (from UniProt Q9EPW1 1-626)
binds	phosphorylated brain-and-muscle arnt-like protein 1 (p-BMAL1) (from UniProt Q9EPW1 1-626)
